Data as given in paper doi:10.1101/2024.10.13.618066.
Read-outs that look alike come from different tables or passages of the source. Results are given in words; binding and its absence hold for the method and conditions named. Binding seen in cells or lysates may run through a third protein. Some entries that bind do so weakly or less than the wild type.

Protein sequences, listed by entry. Tags and fused reporters are not part of them. Lines headed by an entry give the natural chain unless they say otherwise; changes in a name come on top.
UniProt A6NHR9, whole entry: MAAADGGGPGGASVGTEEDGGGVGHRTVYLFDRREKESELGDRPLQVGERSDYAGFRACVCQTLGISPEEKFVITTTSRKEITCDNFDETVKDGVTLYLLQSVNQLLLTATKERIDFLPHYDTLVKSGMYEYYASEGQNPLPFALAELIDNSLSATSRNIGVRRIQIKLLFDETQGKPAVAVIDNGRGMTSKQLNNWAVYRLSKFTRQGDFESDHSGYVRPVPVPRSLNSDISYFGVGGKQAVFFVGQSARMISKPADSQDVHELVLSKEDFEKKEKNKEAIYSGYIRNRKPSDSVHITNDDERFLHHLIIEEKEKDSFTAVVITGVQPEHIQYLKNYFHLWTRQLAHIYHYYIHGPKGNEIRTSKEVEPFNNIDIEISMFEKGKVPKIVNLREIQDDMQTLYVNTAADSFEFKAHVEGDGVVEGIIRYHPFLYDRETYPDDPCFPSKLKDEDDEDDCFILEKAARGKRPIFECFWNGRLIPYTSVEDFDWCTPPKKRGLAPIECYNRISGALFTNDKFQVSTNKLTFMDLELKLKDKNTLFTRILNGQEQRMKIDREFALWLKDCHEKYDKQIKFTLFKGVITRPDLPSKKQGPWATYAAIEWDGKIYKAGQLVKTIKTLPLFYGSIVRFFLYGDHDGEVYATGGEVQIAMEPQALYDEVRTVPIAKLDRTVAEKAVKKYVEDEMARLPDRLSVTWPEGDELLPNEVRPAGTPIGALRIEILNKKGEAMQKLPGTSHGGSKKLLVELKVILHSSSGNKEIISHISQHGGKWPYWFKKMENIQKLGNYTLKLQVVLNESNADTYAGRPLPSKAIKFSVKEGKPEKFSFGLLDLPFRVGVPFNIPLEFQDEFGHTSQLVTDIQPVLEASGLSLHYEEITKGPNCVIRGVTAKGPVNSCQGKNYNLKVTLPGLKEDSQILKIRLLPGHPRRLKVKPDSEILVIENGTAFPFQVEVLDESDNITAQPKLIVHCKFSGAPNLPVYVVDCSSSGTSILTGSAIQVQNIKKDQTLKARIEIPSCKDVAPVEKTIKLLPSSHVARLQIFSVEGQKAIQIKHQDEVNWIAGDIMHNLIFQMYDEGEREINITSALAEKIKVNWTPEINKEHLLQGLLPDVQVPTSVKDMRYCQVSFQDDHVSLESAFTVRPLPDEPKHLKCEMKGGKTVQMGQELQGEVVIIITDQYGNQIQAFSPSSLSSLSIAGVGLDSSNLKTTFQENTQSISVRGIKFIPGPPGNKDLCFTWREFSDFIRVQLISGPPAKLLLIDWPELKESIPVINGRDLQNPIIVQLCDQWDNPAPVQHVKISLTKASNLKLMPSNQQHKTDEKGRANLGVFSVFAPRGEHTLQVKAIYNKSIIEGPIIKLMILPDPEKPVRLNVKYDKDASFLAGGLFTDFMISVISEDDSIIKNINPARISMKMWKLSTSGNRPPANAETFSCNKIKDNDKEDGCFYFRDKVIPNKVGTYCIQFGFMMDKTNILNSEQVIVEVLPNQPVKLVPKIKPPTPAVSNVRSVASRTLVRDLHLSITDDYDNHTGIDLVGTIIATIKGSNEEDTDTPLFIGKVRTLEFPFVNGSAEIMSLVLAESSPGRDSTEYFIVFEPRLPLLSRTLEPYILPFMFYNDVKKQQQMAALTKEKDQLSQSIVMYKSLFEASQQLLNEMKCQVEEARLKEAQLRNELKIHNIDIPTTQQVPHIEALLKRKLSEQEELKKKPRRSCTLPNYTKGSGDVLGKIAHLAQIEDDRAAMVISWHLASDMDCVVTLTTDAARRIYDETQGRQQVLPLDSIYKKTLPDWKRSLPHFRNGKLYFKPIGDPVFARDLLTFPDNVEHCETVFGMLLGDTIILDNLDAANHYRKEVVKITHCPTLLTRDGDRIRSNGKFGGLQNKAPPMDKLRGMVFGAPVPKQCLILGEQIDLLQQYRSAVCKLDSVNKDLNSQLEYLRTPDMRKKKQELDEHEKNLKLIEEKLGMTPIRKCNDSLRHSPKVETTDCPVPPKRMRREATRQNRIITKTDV
UniProt Q13263, whole entry: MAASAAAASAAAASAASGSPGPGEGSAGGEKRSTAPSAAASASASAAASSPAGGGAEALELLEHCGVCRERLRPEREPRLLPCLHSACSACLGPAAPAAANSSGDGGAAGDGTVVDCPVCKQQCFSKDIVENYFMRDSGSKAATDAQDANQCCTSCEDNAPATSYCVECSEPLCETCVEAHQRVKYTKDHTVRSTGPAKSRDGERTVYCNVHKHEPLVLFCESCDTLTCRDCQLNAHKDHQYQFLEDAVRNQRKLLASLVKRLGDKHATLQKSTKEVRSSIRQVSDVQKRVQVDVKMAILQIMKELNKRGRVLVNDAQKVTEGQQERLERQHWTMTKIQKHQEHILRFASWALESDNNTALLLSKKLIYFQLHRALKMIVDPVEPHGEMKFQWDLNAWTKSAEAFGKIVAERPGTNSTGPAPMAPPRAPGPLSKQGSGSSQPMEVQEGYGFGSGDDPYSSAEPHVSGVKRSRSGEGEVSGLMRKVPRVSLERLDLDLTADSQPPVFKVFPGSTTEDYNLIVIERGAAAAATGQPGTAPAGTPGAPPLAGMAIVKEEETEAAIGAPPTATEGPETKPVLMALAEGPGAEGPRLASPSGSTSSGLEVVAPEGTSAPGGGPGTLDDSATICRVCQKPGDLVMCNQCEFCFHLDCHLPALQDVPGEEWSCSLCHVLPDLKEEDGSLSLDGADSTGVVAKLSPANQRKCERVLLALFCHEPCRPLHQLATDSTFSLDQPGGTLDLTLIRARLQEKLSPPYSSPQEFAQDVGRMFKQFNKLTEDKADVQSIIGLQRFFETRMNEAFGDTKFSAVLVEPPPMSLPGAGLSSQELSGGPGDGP

How the values were obtained:
Test in all cases: co-IP
[1] = molecular target: SMCHD1 (endogenous, myocytes) (human (endogenous in immortalized myocytes)) (UniProt A6NHR9)
GFP-TRIM28 = GFP-TRIM28 (UniProt Q13263)
[2] = molecular target: 3xHA-SMCHD1 (wild type) (human) (UniProt A6NHR9)
[3] = molecular target: 3xHA-SMCHD1 K1374-2002R (human) (UniProt A6NHR9)
[4] = molecular target: 3xHA-SMCHD1 K1374R (human) (UniProt A6NHR9)
[5] = molecular target: 3xHA-tagged SMCHD1-6xK>R variant (human) (UniProt A6NHR9)
[6] = molecular target: 3xHA-SMCHD1 (wild type) (human) (UniProt A6NHR9); remark: listed apart in the source
[7] = molecular target: GFP-SMCHD1 (wild type) (human) (UniProt A6NHR9)
[8] = molecular target: GFP-SMCHD1-K1374R (human) (UniProt A6NHR9)
[9] = molecular target: GFP-SMCHD1 (wild type) (human) (UniProt A6NHR9); remark: listed apart in the source

Q: How did the binding [1] turn out when “TRIM28 (endogenous, myocytes) (from UniProt Q13263 1-835)” was run?
A: binds

Q: Which binding (GFP-TRIM28) does the source give for “SMCHD1 (endogenous, HEK293T cells) (from UniProt A6NHR9 1-2005)” here?
A: binds

Q: Which results are given for “GFP-SMCHD1 K1374-2002R (from UniProt A6NHR9 1-2005)”?
A: binding [2]: binds; binding [3]: binds

Q: Which results are given for “GFP-SMCHD1 (wild type) (from UniProt A6NHR9 1-2005)”?
A: binding [2]: binds; binding [3]: binds

Q: “TRIM28 (endogenous, HEK293T, HeLa and U2OS cells) (from UniProt Q13263 1-835)” was tested. Which binding [4] did it give?
A: binds

Q: And the binding [5]?
A: binds

Q: What about the binding [6] of the same substance?
A: binds

Q: What about the binding [7] of the same substance?
A: binds

Q: And the binding [8]?
A: binds

Q: And the binding [9]?
A: binds

Q: With “HNRNPK (endogenous, myocytes) (from UniProt P61978 1-463)” as the substance, how does the binding [1] read?
A: binds

Q: For “HNRNPK (endogenous, HEK293T, HeLa and U2OS cells) (from UniProt P61978 1-463)”, which binding [4] is on record?
A: binds

Q: And the binding [5]?
A: binds

Q: And the binding [6]?
A: binds

Q: What about the binding [7] of the same substance?
A: binds

Q: And the binding [8]?
A: binds

Q: What about the binding [9] of the same substance?
A: binds

Q: And the binding (GFP-TRIM28)?
A: binds
